Experimental data from the supplement of paper PMC11006884.
Shown are results outside the selection of targets with a hit, which stands elsewhere. This is a noisy data set. The entries are a selection whose mix differs from that of the whole data set.

The chains behind the UniProt entries cited, without tags or fusion partners. Where a name states a change or a piece, a line headed by the entry shows the natural chain unless it says otherwise.
UniProt Q8IWV7: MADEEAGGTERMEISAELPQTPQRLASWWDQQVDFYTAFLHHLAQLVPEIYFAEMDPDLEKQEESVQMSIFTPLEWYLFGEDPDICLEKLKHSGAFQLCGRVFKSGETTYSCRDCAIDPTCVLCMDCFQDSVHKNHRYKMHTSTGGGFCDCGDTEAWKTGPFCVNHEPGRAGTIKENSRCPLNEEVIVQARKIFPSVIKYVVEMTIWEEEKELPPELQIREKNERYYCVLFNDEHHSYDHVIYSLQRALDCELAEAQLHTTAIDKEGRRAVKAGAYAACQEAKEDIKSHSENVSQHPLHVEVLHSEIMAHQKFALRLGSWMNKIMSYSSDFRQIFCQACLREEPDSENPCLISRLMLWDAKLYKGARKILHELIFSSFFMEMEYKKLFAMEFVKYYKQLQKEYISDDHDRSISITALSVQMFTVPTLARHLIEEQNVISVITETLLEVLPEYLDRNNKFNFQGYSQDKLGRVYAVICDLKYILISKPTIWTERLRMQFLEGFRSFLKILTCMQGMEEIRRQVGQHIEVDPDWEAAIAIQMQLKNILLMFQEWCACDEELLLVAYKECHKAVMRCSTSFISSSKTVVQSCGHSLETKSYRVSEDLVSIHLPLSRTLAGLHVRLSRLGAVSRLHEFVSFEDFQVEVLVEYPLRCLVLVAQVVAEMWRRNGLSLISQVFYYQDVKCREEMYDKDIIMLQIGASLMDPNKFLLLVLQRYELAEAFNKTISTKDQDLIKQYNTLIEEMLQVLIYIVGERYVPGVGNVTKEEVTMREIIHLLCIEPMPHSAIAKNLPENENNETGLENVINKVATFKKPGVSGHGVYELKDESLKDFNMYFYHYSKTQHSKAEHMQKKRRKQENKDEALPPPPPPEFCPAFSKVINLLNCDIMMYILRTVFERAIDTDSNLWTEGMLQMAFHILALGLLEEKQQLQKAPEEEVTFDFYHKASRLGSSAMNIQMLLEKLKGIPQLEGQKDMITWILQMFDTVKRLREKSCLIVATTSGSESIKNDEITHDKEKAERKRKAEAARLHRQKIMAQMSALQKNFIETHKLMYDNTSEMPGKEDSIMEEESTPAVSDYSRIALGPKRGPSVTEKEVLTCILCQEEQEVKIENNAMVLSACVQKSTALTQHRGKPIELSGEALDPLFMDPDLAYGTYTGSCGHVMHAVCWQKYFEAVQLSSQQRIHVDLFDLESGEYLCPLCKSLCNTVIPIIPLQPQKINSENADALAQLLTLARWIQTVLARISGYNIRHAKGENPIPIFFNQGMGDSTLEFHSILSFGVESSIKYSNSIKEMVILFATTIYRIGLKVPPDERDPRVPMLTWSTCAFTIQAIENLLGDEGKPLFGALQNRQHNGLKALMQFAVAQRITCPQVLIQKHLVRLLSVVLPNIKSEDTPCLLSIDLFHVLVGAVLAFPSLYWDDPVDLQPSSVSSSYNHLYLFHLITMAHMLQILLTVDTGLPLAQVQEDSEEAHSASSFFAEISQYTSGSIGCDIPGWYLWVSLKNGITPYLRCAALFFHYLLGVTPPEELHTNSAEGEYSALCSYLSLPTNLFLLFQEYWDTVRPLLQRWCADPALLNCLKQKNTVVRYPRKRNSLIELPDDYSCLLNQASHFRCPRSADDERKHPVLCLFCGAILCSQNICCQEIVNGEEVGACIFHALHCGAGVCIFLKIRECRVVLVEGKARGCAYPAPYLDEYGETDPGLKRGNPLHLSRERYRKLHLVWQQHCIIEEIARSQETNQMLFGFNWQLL
UniProt Q7L5N1: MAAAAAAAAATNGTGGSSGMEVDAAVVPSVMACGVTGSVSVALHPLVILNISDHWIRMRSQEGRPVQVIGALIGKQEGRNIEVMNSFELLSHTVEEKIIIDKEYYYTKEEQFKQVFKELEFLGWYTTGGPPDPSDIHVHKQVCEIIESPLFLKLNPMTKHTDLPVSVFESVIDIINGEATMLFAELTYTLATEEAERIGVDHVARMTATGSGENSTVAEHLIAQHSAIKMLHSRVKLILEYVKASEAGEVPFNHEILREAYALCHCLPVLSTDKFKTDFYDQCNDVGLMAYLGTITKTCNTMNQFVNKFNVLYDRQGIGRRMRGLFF
UniProt Q8IZ83: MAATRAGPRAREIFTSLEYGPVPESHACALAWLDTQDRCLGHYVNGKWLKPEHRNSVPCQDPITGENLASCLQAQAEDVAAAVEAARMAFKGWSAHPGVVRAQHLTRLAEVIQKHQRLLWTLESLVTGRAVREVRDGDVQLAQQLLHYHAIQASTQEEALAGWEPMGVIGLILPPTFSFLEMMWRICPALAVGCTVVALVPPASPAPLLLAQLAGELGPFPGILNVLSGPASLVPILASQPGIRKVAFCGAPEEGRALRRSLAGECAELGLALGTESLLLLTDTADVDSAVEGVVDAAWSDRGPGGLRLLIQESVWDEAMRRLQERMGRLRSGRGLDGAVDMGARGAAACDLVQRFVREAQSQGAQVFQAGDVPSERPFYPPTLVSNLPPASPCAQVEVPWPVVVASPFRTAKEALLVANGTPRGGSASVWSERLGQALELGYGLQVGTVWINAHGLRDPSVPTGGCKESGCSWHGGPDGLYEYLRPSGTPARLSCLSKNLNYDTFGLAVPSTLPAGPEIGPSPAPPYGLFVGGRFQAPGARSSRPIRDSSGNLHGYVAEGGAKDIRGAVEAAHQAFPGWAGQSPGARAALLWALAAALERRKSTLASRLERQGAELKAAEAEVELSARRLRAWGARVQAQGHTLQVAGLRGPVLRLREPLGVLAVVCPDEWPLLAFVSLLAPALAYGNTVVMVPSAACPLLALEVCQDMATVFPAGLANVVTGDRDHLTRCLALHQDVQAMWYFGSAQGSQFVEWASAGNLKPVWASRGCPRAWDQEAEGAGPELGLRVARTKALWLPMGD
UniProt Q86XL3: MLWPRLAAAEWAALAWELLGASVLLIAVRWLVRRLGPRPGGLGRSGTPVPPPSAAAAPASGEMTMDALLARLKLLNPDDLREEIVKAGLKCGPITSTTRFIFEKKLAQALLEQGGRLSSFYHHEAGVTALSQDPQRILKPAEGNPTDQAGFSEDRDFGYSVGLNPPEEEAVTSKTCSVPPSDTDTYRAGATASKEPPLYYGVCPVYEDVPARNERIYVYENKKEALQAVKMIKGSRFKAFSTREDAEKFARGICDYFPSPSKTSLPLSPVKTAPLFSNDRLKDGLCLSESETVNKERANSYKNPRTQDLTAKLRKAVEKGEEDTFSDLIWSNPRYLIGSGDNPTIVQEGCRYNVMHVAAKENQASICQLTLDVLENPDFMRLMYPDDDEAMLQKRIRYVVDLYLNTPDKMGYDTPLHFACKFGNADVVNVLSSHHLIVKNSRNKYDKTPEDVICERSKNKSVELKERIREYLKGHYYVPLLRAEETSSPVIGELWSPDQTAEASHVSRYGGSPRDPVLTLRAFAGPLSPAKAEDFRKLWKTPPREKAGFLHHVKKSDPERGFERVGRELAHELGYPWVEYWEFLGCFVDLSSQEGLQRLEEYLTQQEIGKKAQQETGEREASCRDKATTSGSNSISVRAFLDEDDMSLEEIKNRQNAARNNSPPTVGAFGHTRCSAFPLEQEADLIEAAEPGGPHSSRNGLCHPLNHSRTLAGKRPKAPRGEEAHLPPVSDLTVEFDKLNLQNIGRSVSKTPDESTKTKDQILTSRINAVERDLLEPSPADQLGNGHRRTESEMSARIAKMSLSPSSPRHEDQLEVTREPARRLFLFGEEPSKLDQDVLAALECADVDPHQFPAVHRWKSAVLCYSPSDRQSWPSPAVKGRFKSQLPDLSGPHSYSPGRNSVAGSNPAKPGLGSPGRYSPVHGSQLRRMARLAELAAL
UniProt Q7Z3T8: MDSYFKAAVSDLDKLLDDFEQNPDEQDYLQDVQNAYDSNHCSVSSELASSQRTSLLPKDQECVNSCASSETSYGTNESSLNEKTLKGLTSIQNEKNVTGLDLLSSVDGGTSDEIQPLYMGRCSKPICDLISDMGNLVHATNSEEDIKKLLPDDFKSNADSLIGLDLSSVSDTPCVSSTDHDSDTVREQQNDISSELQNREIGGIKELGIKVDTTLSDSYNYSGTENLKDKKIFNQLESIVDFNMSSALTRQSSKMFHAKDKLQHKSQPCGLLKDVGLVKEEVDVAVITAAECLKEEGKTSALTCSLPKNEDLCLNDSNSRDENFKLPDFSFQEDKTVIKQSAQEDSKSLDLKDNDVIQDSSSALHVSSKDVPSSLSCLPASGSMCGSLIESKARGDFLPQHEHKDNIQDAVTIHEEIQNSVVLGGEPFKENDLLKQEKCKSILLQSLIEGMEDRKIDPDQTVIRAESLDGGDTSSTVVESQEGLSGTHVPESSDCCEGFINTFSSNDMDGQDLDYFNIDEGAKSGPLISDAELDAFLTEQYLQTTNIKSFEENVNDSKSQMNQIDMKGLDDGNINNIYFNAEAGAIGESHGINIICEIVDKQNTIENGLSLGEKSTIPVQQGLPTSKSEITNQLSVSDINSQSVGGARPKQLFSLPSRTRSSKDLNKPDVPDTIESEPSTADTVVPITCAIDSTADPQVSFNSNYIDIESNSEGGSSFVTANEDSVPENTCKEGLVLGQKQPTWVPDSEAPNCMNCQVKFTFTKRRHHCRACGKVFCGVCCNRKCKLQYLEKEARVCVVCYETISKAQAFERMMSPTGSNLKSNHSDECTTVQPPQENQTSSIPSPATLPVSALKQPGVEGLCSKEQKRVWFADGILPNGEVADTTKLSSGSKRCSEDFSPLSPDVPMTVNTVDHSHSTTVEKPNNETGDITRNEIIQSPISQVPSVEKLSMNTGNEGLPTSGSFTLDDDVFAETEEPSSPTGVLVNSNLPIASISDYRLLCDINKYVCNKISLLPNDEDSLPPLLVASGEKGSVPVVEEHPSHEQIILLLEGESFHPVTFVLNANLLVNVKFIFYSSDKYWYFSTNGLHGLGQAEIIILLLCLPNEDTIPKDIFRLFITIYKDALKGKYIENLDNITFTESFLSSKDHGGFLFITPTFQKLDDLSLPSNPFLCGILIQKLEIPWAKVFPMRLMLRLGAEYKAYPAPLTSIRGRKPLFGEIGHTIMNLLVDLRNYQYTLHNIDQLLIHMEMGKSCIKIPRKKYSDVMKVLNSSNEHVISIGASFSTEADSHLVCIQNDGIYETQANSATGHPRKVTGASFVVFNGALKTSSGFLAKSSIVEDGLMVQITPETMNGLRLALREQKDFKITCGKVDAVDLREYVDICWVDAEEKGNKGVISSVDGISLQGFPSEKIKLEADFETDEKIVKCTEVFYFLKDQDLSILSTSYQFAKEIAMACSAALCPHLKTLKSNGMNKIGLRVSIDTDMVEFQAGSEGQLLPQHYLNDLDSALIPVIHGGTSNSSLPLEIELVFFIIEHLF
UniProt Q86VP6: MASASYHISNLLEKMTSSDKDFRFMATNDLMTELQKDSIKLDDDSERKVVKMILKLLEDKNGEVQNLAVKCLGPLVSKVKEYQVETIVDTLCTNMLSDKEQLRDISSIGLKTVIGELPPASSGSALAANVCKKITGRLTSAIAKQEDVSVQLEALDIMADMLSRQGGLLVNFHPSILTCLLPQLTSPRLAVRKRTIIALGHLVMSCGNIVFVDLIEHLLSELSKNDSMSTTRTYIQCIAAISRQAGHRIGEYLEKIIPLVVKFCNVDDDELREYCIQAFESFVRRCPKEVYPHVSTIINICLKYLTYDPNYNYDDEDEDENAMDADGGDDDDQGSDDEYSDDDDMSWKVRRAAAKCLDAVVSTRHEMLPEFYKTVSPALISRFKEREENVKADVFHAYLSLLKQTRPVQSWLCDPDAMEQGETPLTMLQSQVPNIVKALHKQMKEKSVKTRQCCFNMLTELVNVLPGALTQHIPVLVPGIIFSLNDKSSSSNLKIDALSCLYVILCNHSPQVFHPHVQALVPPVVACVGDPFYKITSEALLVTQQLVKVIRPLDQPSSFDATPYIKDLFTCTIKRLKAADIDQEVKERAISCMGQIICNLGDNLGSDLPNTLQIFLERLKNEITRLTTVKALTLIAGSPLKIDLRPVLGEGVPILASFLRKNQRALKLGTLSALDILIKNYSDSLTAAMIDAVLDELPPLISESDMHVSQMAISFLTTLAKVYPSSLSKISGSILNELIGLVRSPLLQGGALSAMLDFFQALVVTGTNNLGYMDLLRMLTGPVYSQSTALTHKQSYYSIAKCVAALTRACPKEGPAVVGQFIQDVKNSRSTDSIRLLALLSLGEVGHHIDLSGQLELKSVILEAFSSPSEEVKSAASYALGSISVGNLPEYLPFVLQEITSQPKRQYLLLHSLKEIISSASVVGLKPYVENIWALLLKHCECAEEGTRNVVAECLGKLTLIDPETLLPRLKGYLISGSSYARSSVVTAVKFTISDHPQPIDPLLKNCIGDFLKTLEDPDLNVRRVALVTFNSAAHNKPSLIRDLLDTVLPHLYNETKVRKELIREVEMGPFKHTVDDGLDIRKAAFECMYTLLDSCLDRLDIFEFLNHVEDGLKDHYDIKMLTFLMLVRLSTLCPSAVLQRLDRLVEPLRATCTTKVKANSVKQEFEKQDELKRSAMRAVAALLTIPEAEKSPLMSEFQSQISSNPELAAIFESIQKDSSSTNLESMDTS

compound: COC(=O)/C=C/c1ccccc1 [methyl cinnamate]; experiment: log2 ratio of iodoacetamide-alkyne labeling of the cysteine site, DMSO over compound (competition); higher = stronger covalent engagement of the cysteine by the compound, active = 1 or more; conditions: 500 µM; treatment time 1 h; system: HEK293T cell lysate
In short: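 HEK293T lysate at 2 mg/mL was treated with vehicle or electrophile (500 µM) for 1 h at ambient temperature, then labelled with iodoacetamide alkyne (1 h), clicked to sCIP-TMT reagents, pooled, digested with trypsin overnight at 37 °C, enriched on streptavidin and eluted with acid. Peptides were analysed by Orbitrap Eclipse LC-MS/MS with FAIMS and quantified in FragPipe, using duplicate channels and three replicates, with cysteines quantified in only one replicate excluded. The log2 competition ratio for each cysteine is the mean control-channel reporter intensity divided by the mean compound-channel reporter intensity.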

log2 ratio of iodoacetamide-alkyne labeling, inactive:
UBR1 C1603 (UniProt Q8IWV7) 0.174
COPS6 C283 (UniProt Q7L5N1) 0.238
PEG10 C78 (UniProt Q86TG7) 0.0912
ALDH16A1 C28 (UniProt Q8IZ83) 0.0743
SND1 C96 (UniProt Q7KZF4) 0.0313
HUWE1 C3658 (UniProt Q7Z6Z7) 0.44
ANKLE2 C674 (UniProt Q86XL3) -0.228
ZFYVE16 C895 (UniProt Q7Z3T8) 0.251
CAND1 C954 (UniProt Q86VP6) -0.0574
ANKLE2 C367 (UniProt Q86XL3) 0.0646
ISCA2 C144 (UniProt Q86U28) 0.503
EMSY C1211 (UniProt Q7Z589) 0.258
MAP7D3 C315 (UniProt Q8IWC1) 0.217
CAND1 C1007 (UniProt Q86VP6) 0.243
PBRM1 C450 (UniProt Q86U86) 0.0266

4 consecutive records already listed:
log2 ratio of iodoacetamide-alkyne labeling, inactive:
ANKLE2 C674 (UniProt Q86XL3) -0.228
ZFYVE16 C895 (UniProt Q7Z3T8) 0.251
CAND1 C954 (UniProt Q86VP6) -0.0574
ANKLE2 C367 (UniProt Q86XL3) 0.0646
